Reference: patent publication US20150111822A1
No constants are given. Whether binding was seen depends on the method and setting. Some entries that bind do so weakly or less than the wild type.

Chains of the proteins cited; added tags and fusions are not shown. Residues count along the entry.
UniProt P11276, residues 33-2477: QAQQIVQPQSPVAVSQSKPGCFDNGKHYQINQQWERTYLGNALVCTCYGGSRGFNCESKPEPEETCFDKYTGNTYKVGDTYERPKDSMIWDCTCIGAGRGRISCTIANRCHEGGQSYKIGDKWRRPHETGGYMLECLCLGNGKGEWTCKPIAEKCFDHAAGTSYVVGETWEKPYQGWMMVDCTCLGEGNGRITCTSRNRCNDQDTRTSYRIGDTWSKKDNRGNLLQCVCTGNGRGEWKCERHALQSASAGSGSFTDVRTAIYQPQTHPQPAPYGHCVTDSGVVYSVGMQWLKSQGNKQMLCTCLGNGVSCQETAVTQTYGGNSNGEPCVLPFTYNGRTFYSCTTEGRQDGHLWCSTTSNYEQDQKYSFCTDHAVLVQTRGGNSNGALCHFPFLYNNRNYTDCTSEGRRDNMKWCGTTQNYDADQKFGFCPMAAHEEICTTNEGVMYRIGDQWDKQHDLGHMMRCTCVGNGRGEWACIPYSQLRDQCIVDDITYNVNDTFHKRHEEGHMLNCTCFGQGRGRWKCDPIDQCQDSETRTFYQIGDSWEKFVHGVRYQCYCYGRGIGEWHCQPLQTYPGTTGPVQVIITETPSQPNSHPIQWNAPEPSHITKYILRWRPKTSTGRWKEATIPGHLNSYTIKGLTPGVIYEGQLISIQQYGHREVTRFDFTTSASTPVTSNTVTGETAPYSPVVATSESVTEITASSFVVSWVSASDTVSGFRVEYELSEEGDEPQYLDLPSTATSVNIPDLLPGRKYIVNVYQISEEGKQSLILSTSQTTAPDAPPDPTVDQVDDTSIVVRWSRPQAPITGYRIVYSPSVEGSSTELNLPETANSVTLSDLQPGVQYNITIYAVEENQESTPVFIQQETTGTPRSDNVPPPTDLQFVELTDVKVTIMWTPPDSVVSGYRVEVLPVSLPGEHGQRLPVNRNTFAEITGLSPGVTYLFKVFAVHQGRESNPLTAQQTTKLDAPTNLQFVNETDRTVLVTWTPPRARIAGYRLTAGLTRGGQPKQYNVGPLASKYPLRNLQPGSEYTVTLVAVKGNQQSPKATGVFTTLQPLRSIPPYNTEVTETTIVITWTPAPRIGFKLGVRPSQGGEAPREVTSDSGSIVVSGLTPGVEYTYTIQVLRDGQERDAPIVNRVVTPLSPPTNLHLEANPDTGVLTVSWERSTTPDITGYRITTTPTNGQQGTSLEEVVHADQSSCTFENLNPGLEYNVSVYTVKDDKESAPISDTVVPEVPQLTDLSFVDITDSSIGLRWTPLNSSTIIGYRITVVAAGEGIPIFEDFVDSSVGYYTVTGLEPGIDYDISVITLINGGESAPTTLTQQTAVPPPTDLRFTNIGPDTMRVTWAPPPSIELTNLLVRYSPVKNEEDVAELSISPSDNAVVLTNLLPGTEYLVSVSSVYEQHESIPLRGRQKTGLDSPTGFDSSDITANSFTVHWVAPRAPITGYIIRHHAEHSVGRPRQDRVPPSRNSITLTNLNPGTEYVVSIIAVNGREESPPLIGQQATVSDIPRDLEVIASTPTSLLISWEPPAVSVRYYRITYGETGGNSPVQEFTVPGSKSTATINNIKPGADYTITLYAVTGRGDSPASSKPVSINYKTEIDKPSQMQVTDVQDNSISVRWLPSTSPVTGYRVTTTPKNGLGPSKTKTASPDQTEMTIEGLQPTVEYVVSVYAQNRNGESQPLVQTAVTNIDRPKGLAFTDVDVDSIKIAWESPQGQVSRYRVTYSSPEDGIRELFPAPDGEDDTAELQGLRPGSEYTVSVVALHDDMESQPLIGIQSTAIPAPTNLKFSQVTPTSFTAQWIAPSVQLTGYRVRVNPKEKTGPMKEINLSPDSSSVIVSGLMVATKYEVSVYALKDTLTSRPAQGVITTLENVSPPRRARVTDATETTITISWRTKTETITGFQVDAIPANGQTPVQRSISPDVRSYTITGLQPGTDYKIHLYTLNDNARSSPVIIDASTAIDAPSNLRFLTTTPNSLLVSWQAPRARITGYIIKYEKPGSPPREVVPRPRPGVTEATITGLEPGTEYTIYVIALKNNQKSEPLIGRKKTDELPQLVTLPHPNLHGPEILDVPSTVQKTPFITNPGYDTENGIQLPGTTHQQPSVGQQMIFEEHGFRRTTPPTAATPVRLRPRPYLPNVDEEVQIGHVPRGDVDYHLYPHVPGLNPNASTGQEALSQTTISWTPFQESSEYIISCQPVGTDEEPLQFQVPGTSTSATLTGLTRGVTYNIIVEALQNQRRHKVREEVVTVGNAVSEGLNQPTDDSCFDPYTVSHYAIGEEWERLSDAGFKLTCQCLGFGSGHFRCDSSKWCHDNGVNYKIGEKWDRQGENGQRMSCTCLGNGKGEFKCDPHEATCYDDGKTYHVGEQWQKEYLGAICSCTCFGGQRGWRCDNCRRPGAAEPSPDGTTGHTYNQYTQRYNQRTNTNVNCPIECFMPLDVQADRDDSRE

How the values were obtained:
[1] = molecular target: T1, endogenous Syndecan 4 (Sdc4) on mouse satellite cells and primary myoblasts (mouse) (UniProt O35988); assay: in-situ PLA (FIG. 19C)
T1 sequence (looked up): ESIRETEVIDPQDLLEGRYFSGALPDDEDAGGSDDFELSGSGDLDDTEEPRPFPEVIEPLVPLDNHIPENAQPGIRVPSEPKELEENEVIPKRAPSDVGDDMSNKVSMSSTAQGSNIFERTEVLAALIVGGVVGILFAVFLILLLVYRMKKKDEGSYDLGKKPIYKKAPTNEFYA

[2] = molecular target: T1, endogenous Syndecan 4 (Sdc4) on mouse satellite cells and primary myoblasts (mouse); assay: immunostaining co-localisation (FIG. 9C)
[3] = molecular target: T1, endogenous Syndecan 4 (Sdc4) on mouse satellite cells and primary myoblasts (mouse); assay: immunostaining co-localisation on 42 h activated satellite cells on floating fibers (FIG. 9C)
[4] = molecular target: T1, endogenous Syndecan 4 (Sdc4) on mouse satellite cells and primary myoblasts (mouse); assay: in-situ PLA with Sdc4 and FN antibodies on satellite cells on cultured myofibers; reactivity abrogated by siSdc4

Measured: binding

fibronectin (FN) on activated satellite cells in myofiber culture (from UniProt P11276 33-2477) (ligand)
binds: [1] | [2] | [3] | [4]
